# In PubChem BioAssay AID2685 (National Center for Advancing Translational Sciences (NCATS), 2010):
# The list shows a part of the results. These are further read-outs of the screen, such as a control signal, another cell line or another target. No call is given for them. The list favours compounds with an active or inconclusive main result. Words in brackets tell the shape of the fitted curve; partial curves, single points and poor fits give uncertain potencies.
# Experiment: qHTS Assay for Lipid Storage Modulators in Drosophila S3 Cells;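 on cell number change: cells counted by Cell Tracker Red CMTPX staining in the red channel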
# Conditions: BODIPY lipid droplet fluorescence, 18-24 h; for cell number change: measured here: cell count max response, cells fed with added oleic acid
# Method in brief: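 Drosophila S3 cells got compounds at several concentrations plus oleic acid (400 uM solution). Laser-scanning cytometry with 488 nm excitation read lipid droplets at 500-530 nm and cells at 575-640 nm. Percent activity was relative to 20 uM Triacsin C.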
# [1] = measured here: cell number channel AC50, cells fed with added oleic acid
# [2] = measured here: lipid fluorescence (Fed channel) AC50, cells fed with added oleic acid
Compound,cell number change [%],AC50 [1],AC50 [2]
CC1Cc2ccccc2N1C(=O)COC(=O)/C=C/c1ccc(F)cc1 (centres undefined),-5.1,"0.461 µM [rising, single point]","8.2 µM [falling, partial curve]"
CCOC(=O)CN1C(=O)N(CC(=O)OCC)C(c2ccccc2)(c2ccccc2)C1=O,23.6,–,"29.1 µM [rising, single point]"
COc1cc(NC(=O)N[C@@H](CCSC)C(=O)O)cc(OC)c1,-37.9,"6.51 µM [falling, full curve, poor fit]","4.11 µM [falling, full curve]"
CCOc1ccc(CCNC(=O)C(C)n2nc(C)n3c(cc4occc43)c2=O)cc1OCC (centres undefined),-10.2,–,"0.231 µM [rising, partial curve]"
COc1cccc(NC(=O)CSc2nnc(COc3ccc4c(c3)CCCC4)o2)c1,47.2,"20.6 µM [rising, single point]","1.3 µM [rising, single point]"
Cc1ccc(C)c(N2CCN(CCCc3ccccc3)CC2)c1,-41.4,"20.6 µM [falling, single point]","16.4 µM [falling, partial curve]"
Cc1cc(Nc2cc(Cl)cc(Cl)c2)nc(N)n1,-53.7,"20.6 µM [falling, single point]","20.6 µM [falling, single point]"
COC(=O)c1c(-c2c(Cl)cccc2Cl)noc1NC(=O)NN1CCCCC1,-61.1,"14.6 µM [falling, partial curve, poor fit]",–
COc1ccc(CNC(=O)COC(=O)c2ccc(C)c(S(=O)(=O)N3CCOCC3)c2)cc1OC,-43.1,"14.6 µM [falling, partial curve]","7.31 µM [falling, partial curve]"
O=C(Nc1ccc(OC(F)(F)F)cc1)c1cnc2n(c1=O)CCS2,60.4,"13 µM [rising, partial curve]","13 µM [rising, partial curve]"
O=C(COc1ncnc2ccccc12)NCCCN1CCCC1=O,-14.9,–,"0.116 µM [falling, full curve]"
COc1cc(NC(=S)NCCc2ccc(S(N)(=O)=O)cc2)c(OC)cc1Cl,-22,–,"0.794 µM [falling, full curve]"
CN1C(=O)/C(=C/c2ccccc2OCc2ccccc2)NC1=S,-14.3,–,"4.61 µM [falling, full curve, poor fit]"
CCCC(=O)Nc1ccccc1NC(=O)CN(C)S(=O)(=O)c1ccccc1,–,"5.8 µM [falling, partial curve]","4.11 µM [falling, partial curve]"
CCCN(CCC)Cc1c(C(=O)N/N=C/C(C)=C\c2ccccc2)nnn1-c1nonc1N,30,–,–
O=C(Nc1cnn(Cc2ccccc2)c1)NC12CC3CC(CC(C3)C1)C2,-48.8,"29.1 µM [falling, partial curve, poor fit]",–
CC1(C)CC(C)(O)P(=O)(c2ccccc2)O1 (centres undefined),-206,"6.51 µM [falling, partial curve]","5.8 µM [falling, full curve]"
O=C(O)c1ccc(Cl)cc1NC(=O)C1CCCO1 (centres undefined),-3.83,–,"0.082 µM [falling, full curve, poor fit]"
Cc1ccc(OCCCn2ccnc2)c(Br)c1,-16,–,"6.51 µM [falling, single point]"

Compound,cell number change [%],AC50 [1],AC50 [2]
O=C1N(CN2CCN(c3cccc(Cl)c3)CC2)c2ccccc2C12OCCCO2,0.879,–,"6.51 µM [falling, single point]"
CCCNC(=O)COC(=O)CCC(=O)c1cccs1,-45.2,"32.6 µM [falling, single point]",–
COc1ccc(-c2csc(NC(=O)C3CSC4(C)CCC(=O)N34)n2)cc1 (centres undefined),25.2,–,–
CC1S/C(=N/N=C2CCC(C(C)(C)C)CC2)NC1=O (centres undefined),19.7,–,"10.3 µM [rising, partial curve, poor fit]"
O=C(CSc1nc(NS(=O)(=O)c2ccccc2)cc(=O)[nH]1)Nc1ccc(Cl)cc1,-29.3,–,"16.4 µM [falling, single point]"
O=C(COc1ccc(S(=O)(=O)N2CCOCC2)cc1)N1CCOCC1,2.68,–,"1.64 µM [falling, partial curve]"
Cn1c(=N)n(CC(=O)O)c2ccccc21,-202,"1.64 µM [falling, full curve]","29.1 µM [falling, single point]"
CCn1ncc([N+](=O)[O-])c1C(=O)N1CCc2ccccc2C1,18.4,–,"0.112 µM [falling, full curve, poor fit]"
CCOc1ccc(-c2c(C#N)c(N)nc3c2c(=O)n(C)c(=O)n3C)cc1OC,4.97,–,"5.8 µM [falling, single point]"
COc1nc(C)cc(C)c1S(=O)(=O)c1ccccc1,-31.7,"4.61 µM [falling, full curve]","6.51 µM [falling, single point]"
CC1(C)Cc2c(C#N)c(SCCC#N)nc(N3CCOCC3)c2CS1,–,–,"1.84 µM [rising, partial curve]"
COc1ccc(CCNC(=O)c2cc(-c3ccc4c(c3)OCO4)on2)cc1OC,26.8,"0.0259 µM [rising, full curve, poor fit]","0.0366 µM [rising, full curve, poor fit]"
COC(=O)c1c(N2C(=O)CCC2=O)sc2c1CCCC2,5.35,–,"6.51 µM [rising, single point]"
NC(=O)N/N=C/c1ccc(-n2nncc2-c2ccc(Cl)cc2)cc1,-2.14,–,"20.6 µM [falling, partial curve]"
COc1cc(CNCc2cccs2)cc(Br)c1OC,59.3,–,–
CC(C)(C)OC(=O)N1CCC(C(=O)N[C@@H](Cc2ccccc2)C(=O)O)CC1,-33.6,"1.03 µM [falling, full curve]","1.46 µM [falling, full curve]"
Cc1cccnc1NC(=O)C(C)N1C(=O)c2ccccc2C1=O (centres undefined),19.2,–,"0.184 µM [rising, full curve, poor fit]"
CCOc1cc(S(=O)(=O)N2CCCCCC2)ccc1F,6,–,"29.1 µM [falling, single point]"
Cc1ccc(S(=O)(=O)/C(C#N)=C/c2c(N3CCOCC3)nc3c(C)cccn3c2=O)cc1,2.95,–,"0.0731 µM [rising, full curve, poor fit]"

# A different layout for some results above:
Compound	cell number change [%]	AC50 [1]	AC50 [2]
O=C(COc1ncnc2ccccc12)NCCCN1CCCC1=O	-14.9	–	0.116 µM [falling, full curve]
COc1cc(NC(=S)NCCc2ccc(S(N)(=O)=O)cc2)c(OC)cc1Cl	-22	–	0.794 µM [falling, full curve]

# Further structures follow:

Compound,cell number change [%],AC50 [1],AC50 [2]
O=C(CSc1ncn(-c2ccccc2)n1)Nc1nc2c(s1)CCCC2,–,"2.91 µM [rising, partial curve]","20.6 µM [rising, partial curve]"
CCOc1ccc(S(=O)(=O)NCc2ccccc2)cc1C(N)=O,-16.7,–,"10 µM [falling, partial curve]"
Cc1cccc(NC(=S)NCc2ccccc2Cl)c1C,-15,–,–
CCOC(=O)CN1CC23C=CC(O2)C(C(=O)Nc2ccc(OC)cc2OC)C3C1=O (centres undefined),-2.42,–,–
COc1ccc2oc(C(=O)Nc3nc(-c4ccccn4)cs3)c(C)c2c1,-73.3,"14.6 µM [falling, partial curve]","18.4 µM [falling, single point]"
Cc1ccc(NC(=O)[C@@H](CC(C)C)NC(=O)[C@@H]2Cc3ccccc3CN2)cc1,20.6,–,"29.1 µM [rising, single point]"
COc1cc(NC(=O)c2ccco2)c(OC)cc1NC(=O)CSc1ncc(-c2ccc(F)cc2)[nH]1,-15.3,–,"7.31 µM [falling, single point]"
Cc1ccc(S(=O)(=O)Nc2cccc(C(=O)N3CCN(c4ccccc4O)CC3)c2)cc1F,12.3,–,–
CC(=O)N1CCN(c2ccc(NC(=O)c3ccc4c(c3)OCO4)cc2)CC1,6.85,–,"0.0326 µM [rising, full curve, poor fit]"
N#C/C(=C\c1ccc(Sc2nc3ccccc3[nH]2)o1)c1ccccc1,–,"3.66 µM [rising, partial curve, poor fit]","2.06 µM [rising, partial curve]"
CCC(C(=O)Oc1c(C(C)C)cccc1C(C)C)c1ccccc1 (centres undefined),-34.9,"9.2 µM [falling, single point]","0.461 µM [rising, single point]"
CC1(C)Cc2c(C#N)c(N3CCN(C(=O)c4ccco4)CC3)nc(-c3ccco3)c2CS1,-24.6,–,"10.3 µM [falling, single point]"
CCC(N=c1cc(-c2ccc(OC)cc2)oc2ccc(C)cc12)C(=O)O (centres undefined),-50,"29.1 µM [falling, partial curve, poor fit]",–
CCc1sc(C(=O)NNC(=O)CNC(=O)c2ccccc2F)cc1C,-8.77,–,"0.0058 µM [rising, full curve, poor fit]"
CCOC(=O)c1c(C)oc2c1c(CN1CCN(C(=O)OCC)CC1)c(O)c1ccccc12,-65.1,"13 µM [falling, partial curve]",–
CC1(C)CC(=O)C=C(N2CCN(C3=CC(=O)CC(C)(C)C3)CC2)C1,-12.5,"6.51 µM [falling, single point]",–
COc1ccccc1-c1oc2ccccc2c1C#CC(C)(C)O,3.04,"0.164 µM [falling, full curve]","0.092 µM [falling, full curve]"
COc1cc(C2C3C(=O)N(Cc4ccccc4)C(=O)C3ON2c2ccccc2)cc(OC)c1O (centres undefined),-11.6,–,–
